The test system of the test is P388 leukemia ip, CD2F1 mice, survival T/C. The test can be described thus: NCI In Vivo Anticancer Drug Screen. Data for tumor model P388 Leukemia (intraperitoneal) in CD2F1 (CDF1) mice. To be noted: T/C endpoint: median survival time, higher T/C = longer survival.
The mark [1] stands for this setting: dose: 60.0 mg/kg/injection, schedule: Q01DX005 (ip), vehicle: saline with Tween-80.
[2] abbreviates: dose: 120.0 mg/kg/injection, schedule: Q01DX005 (ip), vehicle: saline with Tween-80.
Setting [3] is: dose: 240.0 mg/kg/injection, schedule: Q01DX005 (ip), vehicle: saline with Tween-80.
Where [4] appears, read: dose: 50.0 mg/kg/injection, schedule: Q01DX009 (ip), vehicle: saline with Tween-80.
Setting [5] is: dose: 100.0 mg/kg/injection, schedule: Q01DX009 (ip), vehicle: saline with Tween-80.
[6] abbreviates: dose: 200.0 mg/kg/injection, schedule: Q01DX009 (ip), vehicle: saline with Tween-80.
The mark [7] stands for this setting: dose: 400.0 mg/kg/injection, schedule: Q04DX002 (ip), vehicle: saline with Tween-80.
The mark [8] stands for this setting: dose: 50.0 mg/kg/injection, schedule: Q01DX005 (ip), vehicle: saline with Tween-80.
Where [9] appears, read: dose: 100.0 mg/kg/injection, schedule: Q01DX005 (ip), vehicle: saline with Tween-80.
[10] abbreviates: dose: 200.0 mg/kg/injection, schedule: Q01DX005 (ip), vehicle: saline with Tween-80.
The mark [11] stands for this setting: dose: 25.0 mg/kg/injection, schedule: Q01DX009 (ip), vehicle: saline.

The results in this text go back to PubChem BioAssay AID330 (DTP/NCI, 2004).

Each structure is given as a SMILES string. The list shows only some results of the screen, not a fair sample: it gathers tests that were run many times, whatever their T/C, doses with no T/C, and many T/C values between a quarter and a half above the control. Further doses and runs are listed elsewhere. T/C: endpoint of the treated group in % of that of the vehicle group. Some entries give survivors of the animals treated and no T/C: the source holds a T/C of zero for them, seemingly a mark for toxic or unscored doses. Some doses without a T/C left all or most animals alive at the check, yet need not have been tolerated: the source hardly ever lists a survival T/C far under the control, and the zero likely stands for such cases as well. Counts of survivors are from the toxicity check (mostly the fifth day) where no day follows; animals may have died later. Schedule codes are those of the source, read here as Q, the interval in days (D) or hours (H), X, the number of doses. Some entries were tested several times; the results are listed from low to high. Where survival is the endpoint, this PubChem deposit counts one and a half times the control or more as active, and values a quarter to a half above the control carry no call in these data; other NCI protocols may use other cut-offs. Some T/C values carry the count of animals alive at the toxicity check (mostly the fifth day); without a count, all were alive then.

Regarding `CCN(CC)CCCC(C)Nc1cc(C)nc2cc(N(C)C)ccc12` (stereo not given), the survivor count (dose: 50.0 mg/kg/injection, schedule: Q01DX009 (ip), vehicle: Klucel (hydroxypropylcellulose) (HPC)) is 3 of 6.
As to `CCCCC1C2C(S(=O)(=O)c3ccccc3)=NOC2C=CN1C(C)=O` (stereo not given), the T/C under setting [1] is recorded as 86, 99, 109, 110 % of control. Also, the survivor count is recorded as 4 of 6 under setting [2] and 0 of 6 under setting [3].
As to `CCCCCCOCCN1CCN(CCCN2c3ccccc3Sc3ccc(C(F)(F)F)cc32)CC1`, the T/C (dose: 6.25 mg/kg/injection, schedule: Q01DX009 (ip), vehicle: saline with Tween-80) was 129 % of control [5 of 6 alive] and the T/C (dose: 12.5 mg/kg/injection, schedule: Q01DX009 (ip), vehicle: saline with Tween-80) is 129 % of control [5 of 6 alive]. The survivor count is, setting by setting: (dose: 25.0 mg/kg/injection, schedule: Q01DX009 (ip), vehicle: saline with Tween-80) 5 of 6; under setting [4], 1 of 6; under setting [5], 0 of 6.
On to `N/C(=N\O)c1c(Br)n(C2OC(CO)C(O)C2O)c2ncnc(N)c12` (stereo not given), for which the T/C under setting [3] is 132 % of control.
For the compound `O=S1(=O)C(c2ccc(F)cc2)=C(O)c2cc3ccccc3nc21`, the survivor count under setting [6] was 3 of 6.
With `O=C1C(C(=NC2CCCCC2)c2ccccc2)=C(O)c2ccccc21`, under setting [7], the survivor count is on record as 2 of 6.
For `CC(=O)OCN(C)N=Nc1ccc(C(C)=O)cc1`, the survivor count (dose: 480.0 mg/kg/injection, schedule: Q01DX005 (ip), vehicle: Klucel (hydroxypropylcellulose) (HPC)) is 0 of 6.
As for `CCOC(=O)/C(C#N)=C/N1CCCC1`, the survivor count is given as 4 of 6 under setting [8], 2 of 6 under setting [9] and 0 of 6 under setting [10].
`CCCCCCCCNC(=O)C1C(=O)N(CCCCCCCC)C(=O)/C1=N/N` (stereo not given): under setting [7], the survivor count is on record as 6 of 6.
In the case of `CC12CCC(Br)C(C)(C)C1C(O)C=C1C(=O)OCC1O2` (stereo not given), the survivor count (dose: 64.0 mg/kg/injection, schedule: Q01DX005 (ip), vehicle: Klucel (hydroxypropylcellulose) (HPC)) is 0 of 5.
On to `COc1ccc2c(c1)-c1nn(CCO)c(-c3cccnc3)c1CC2`, for which the survivor count (dose: 400.0 mg/kg/injection, schedule: Q04DX002 (ip), vehicle: DMSO) was 0 of 4.
For `O=[N+]([O-])c1ccc(C2=C[P+](c3ccccc3)(c3ccccc3)C=C(c3ccccc3)O2)cc1`, the T/C is 125 % of control (dose: 6.0 mg/kg/injection, schedule: Q01DX005 (ip), vehicle: saline with Tween-80) and 132 % of control [4 of 5 alive] (dose: 6.0 mg/kg/injection, schedule: Q01DX005 (ip), vehicle: saline). For the same compound, the survivor count runs as follows: (dose: 12.0 mg/kg/injection, schedule: Q01DX005 (ip), vehicle: saline with Tween-80) 2 of 5; (dose: 12.5 mg/kg/injection, schedule: Q01DX005 (ip), vehicle: saline with Tween-80) 5 of 5; (dose: 25.0 mg/kg/injection, schedule: Q01DX005 (ip), vehicle: saline with Tween-80) 2 of 5; under setting [8], 0 of 5.
For `CCN1C2=NCCN2C(=O)c2ccccc21`, under “dose: 200.0 mg/kg/injection, schedule: Q01DX009 (ip), vehicle: Klucel (hydroxypropylcellulose) (HPC)”, the survivor count is listed as 0 of 6.
For the compound `Nc1ccc(NCCCC2CCCN3CCCCC23)c2c(=O)c3ccccc3sc12` (stereo not given), the survivor count (dose: 400.0 mg/kg/injection, schedule: Q01DX005 (ip), vehicle: saline with Tween-80) is listed as 0 of 6.
As to `NC(=S)N/N=C\C12CC3CC(CC(C3)C1)C2`, the survivor count under setting [6] is reported as 1 of 6.
As for `CS/N=N/N=C(\c1ccccc1)N1CCOCC1`, the survivor count under setting [3] is 0 of 6.
`O=C(O)CN1C(=O)C=CC1=O`: the survivor count by setting is: under setting [11], 6 of 6; (dose: 50.0 mg/kg/injection, schedule: Q01DX009 (ip), vehicle: saline) 0 of 6; (dose: 100.0 mg/kg/injection, schedule: Q01DX009 (ip), vehicle: saline) 0 of 6; (dose: 200.0 mg/kg/injection, schedule: Q01DX009 (ip), vehicle: saline) 0 of 6.
As for `CC(C)COC(=O)N(CCCl)N=O`, the survivor count is recorded as 6 of 6 (dose: 10.0 mg/kg/injection, schedule: Q01DX009 (ip), vehicle: saline with Tween-80); 6 of 6 (dose: 20.0 mg/kg/injection, schedule: Q01DX001 (ip), vehicle: saline with Tween-80); 1 of 6 (dose: 20.0 mg/kg/injection, schedule: Q01DX009 (ip), vehicle: saline with Tween-80); 2 of 6 (dose: 40.0 mg/kg/injection, schedule: Q01DX001 (ip), vehicle: saline with Tween-80).
For `O=[N+]([O-])c1cnc(Sc2ncccn2)c([N+](=O)[O-])c1`, the survivor count under setting [11] is 3 of 6; the survivor count (dose: 100.0 mg/kg/injection, schedule: Q01DX009 (ip), vehicle: suspension in saline) was 3 of 6; the survivor count (dose: 200.0 mg/kg/injection, schedule: Q01DX009 (ip), vehicle: suspension in saline) is reported as 0 of 6. Moreover, the T/C (dose: 25.0 mg/kg/injection, schedule: Q01DX009 (ip), vehicle: suspension in saline) is 141 % of control.
Turning to `CCN(CC)CCCC(C)NCCCN` (stereo not given), the survivor count (dose: 400.0 mg/kg/injection, schedule: Q04DX003 (ip), vehicle: saline) is reported as 1 of 6.
`ONc1ncnc2nc[nH]c12`: the T/C is 125 % of control (dose: 25.0 mg/kg/injection, schedule: Q04DX003 (ip), vehicle: saline sonified); 127 % of control (dose: 33.0 mg/kg/injection, schedule: Q04DX003 (ip), vehicle: saline with Tween-80); 141 % of control (dose: 50.0 mg/kg/injection, schedule: Q04DX003 (ip), vehicle: saline sonified); 127 % of control (dose: 75.0 mg/kg/injection, schedule: Q04DX003 (ip), vehicle: saline with Tween-80); 133 % of control (dose: 100.0 mg/kg/injection, schedule: Q04DX003 (ip), vehicle: saline sonified).
For the compound `Nc1nc(C(Br)Br)c([N+](=O)[O-])c(=O)[nH]1`, under setting [8], the T/C is 134 % of control [4 of 5 alive]. Further, the survivor count by setting is: under setting [9], 0 of 3 and 0 of 5; under setting [10], 0 of 5.
`Cc1c2cc[n+]([O-])cc2c(C)c2c1oc1ccccc12`: the T/C by setting is: under setting [4], 125 and 134 % of control; under setting [5], 146 % of control. Also, the survivor count (dose: 400.0 mg/kg/injection, schedule: Q01DX009 (ip), vehicle: saline with Tween-80) is reported as 6 of 6.
For the compound `COc1ccc(C(=O)N2C3C4C=CC(C4)C3N2C(=O)c2ccc(OC)cc2)cc1` (stereo not given), where the note is “dose: 100.0 mg/kg/injection, schedule: Q01DX005 (ip), vehicle: Klucel (hydroxypropylcellulose) (HPC)”, the survivor count is on record as 6 of 6.
Consider `N#Cc1c(-c2ccccc2)cn2c1[nH]c(=O)c1c3c(sc12)CCCC3`, for which the survivor count under setting [2] was 6 of 6.
For the compound `CN=C1c2ccccc2C2(c3ccccc3)C1N2C` (stereo not given), the survivor count (dose: 400.0 mg/kg/injection, schedule: Q04DX003 (ip), vehicle: saline with Tween-80) is listed as 1 of 6.
With `CCC[CH2][Sn]([CH2]CCC)([O]C(=O)CCC(C)=O)[O]C(=O)CCC(C)=O`, the T/C (dose: 6.25 mg/kg/injection, schedule: Q01DX009 (ip), vehicle: Klucel (hydroxypropylcellulose) (HPC)) was 129 and 142 % of control. In addition, the survivor count is recorded as 6 of 6 (dose: 12.5 mg/kg/injection, schedule: Q01DX009 (ip), vehicle: Klucel (hydroxypropylcellulose) (HPC)); 6 of 6 (dose: 25.0 mg/kg/injection, schedule: Q01DX009 (ip), vehicle: Klucel (hydroxypropylcellulose) (HPC)); 0 of 6 under setting [4]; 0 of 6 under setting [5]; 0 of 6 under setting [6].
As for `C1=C(N2CCCC2)C(=[N+]2CCCC2)C(N2CCCC2)=C1`, the survivor count is recorded as 0 of 6 under setting [1], 0 of 6 under setting [2] and 0 of 6 under setting [3].
